Measurements taken from patent US20220323598A1 (NATIONAL UNIVERSITY CORPORATION TOKAI NATIONAL HIGHER …, published 2022).
These are yes or no findings as the source states them, for the method shown. Some entries that bind do so weakly or less than the wild type. Each block holds one binder with its values, some of them ahead of it.

By UniProt entry, the sequences of proteins in these tests, tags left out. Residues count along the entry.
UniProt Q01973, residues 30-937: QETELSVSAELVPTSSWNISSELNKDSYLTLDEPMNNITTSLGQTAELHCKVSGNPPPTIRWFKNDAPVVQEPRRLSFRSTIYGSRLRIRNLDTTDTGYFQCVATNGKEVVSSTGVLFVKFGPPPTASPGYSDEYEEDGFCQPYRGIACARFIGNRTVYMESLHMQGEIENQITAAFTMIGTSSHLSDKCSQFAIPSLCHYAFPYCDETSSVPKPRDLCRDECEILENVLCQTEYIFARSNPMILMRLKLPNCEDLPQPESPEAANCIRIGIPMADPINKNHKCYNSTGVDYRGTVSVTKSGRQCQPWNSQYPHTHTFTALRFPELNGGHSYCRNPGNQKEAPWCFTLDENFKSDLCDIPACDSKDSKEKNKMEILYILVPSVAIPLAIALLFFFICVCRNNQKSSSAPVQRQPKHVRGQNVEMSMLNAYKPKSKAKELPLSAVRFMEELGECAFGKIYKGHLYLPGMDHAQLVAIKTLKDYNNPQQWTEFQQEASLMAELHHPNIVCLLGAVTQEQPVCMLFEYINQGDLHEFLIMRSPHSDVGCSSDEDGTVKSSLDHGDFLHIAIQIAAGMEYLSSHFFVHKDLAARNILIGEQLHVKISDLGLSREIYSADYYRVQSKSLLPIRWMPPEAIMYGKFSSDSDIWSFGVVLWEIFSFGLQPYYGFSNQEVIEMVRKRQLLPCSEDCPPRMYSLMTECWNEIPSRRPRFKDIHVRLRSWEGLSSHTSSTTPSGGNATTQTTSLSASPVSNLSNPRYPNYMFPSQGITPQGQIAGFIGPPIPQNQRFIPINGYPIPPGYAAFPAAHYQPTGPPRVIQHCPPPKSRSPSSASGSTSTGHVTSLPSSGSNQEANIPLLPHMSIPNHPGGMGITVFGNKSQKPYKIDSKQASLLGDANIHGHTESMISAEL

Assays:
[1] = biological target: human ROR1 protein (GenBank accession No. NP_005003.2) (human) (UniProt Q01973); experiment: flow cytometry, Alexa Fluor 488 labeled antibody at 1 µg/ml on ROR1 high (NCI-H1975, PC-9) and ROR1 low (A427, NCI-H460) expressing cell lines
[2] = biological target: human ROR1 protein (GenBank accession No. NP_005003.2) (human) (UniProt Q01973); experiment: flow cytometry on NCI-H358 cells, relative affinity

binding [1]: binds
B1: chimeric antibody M4 (antibody, human IgG1, V domains shown)
VH: EVQLVESGGGLVKPGGSLKLSCAASGFTFSSYAMSWGRQTPEKRLEWVAAINSKGGSTYYPDTVKDRFTISRDNAKNTLYLQMSSLRSEDTALYYCARHDERIDYAMDYWGQGTSVTVSS
VL: DIKMTQSPSSMYASLGERVTITCKASQDINSYLSWFQQKPGKSPKTLIYRANRLVDGVPSRFSGSGSGQDYSLTISSLEYEDMGIYYCLQYDEFPYTFGSGTKLEIK

binding [2]: binds
B2: 2AM_1M17 (antibody, mouse IgG1, V domains shown)
VH: B1 VH
VL: B1 VL
